Assay results published in PMC6449940, “The Cdc42 effectors Gic1 and Gic2 regulate polarized post-Golgi secretion” (Cell & Bioscience, 2019).
No constants are given. Whether binding was seen depends on the method and setting. For some assays here: Binding seen in cells or lysates may run through a third protein. Some entries that bind do so weakly or less than the wild type. For some assays here: Sequences can lack the tags named with a protein.

The chains behind the UniProt entries cited, without tags or fusion partners. Where a name states a change or a piece, a line headed by the entry shows the natural chain unless it says otherwise. Residues count along the entry.
UniProt P33332, 71-241: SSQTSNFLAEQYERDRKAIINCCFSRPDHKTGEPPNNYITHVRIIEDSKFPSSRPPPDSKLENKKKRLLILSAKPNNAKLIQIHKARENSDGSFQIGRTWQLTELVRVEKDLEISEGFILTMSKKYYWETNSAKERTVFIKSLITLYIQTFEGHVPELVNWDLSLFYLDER

T1: Sec5-GFP (S. cerevisiae (endogenous in yeast)) (UniProt P89102)
T1 sequence: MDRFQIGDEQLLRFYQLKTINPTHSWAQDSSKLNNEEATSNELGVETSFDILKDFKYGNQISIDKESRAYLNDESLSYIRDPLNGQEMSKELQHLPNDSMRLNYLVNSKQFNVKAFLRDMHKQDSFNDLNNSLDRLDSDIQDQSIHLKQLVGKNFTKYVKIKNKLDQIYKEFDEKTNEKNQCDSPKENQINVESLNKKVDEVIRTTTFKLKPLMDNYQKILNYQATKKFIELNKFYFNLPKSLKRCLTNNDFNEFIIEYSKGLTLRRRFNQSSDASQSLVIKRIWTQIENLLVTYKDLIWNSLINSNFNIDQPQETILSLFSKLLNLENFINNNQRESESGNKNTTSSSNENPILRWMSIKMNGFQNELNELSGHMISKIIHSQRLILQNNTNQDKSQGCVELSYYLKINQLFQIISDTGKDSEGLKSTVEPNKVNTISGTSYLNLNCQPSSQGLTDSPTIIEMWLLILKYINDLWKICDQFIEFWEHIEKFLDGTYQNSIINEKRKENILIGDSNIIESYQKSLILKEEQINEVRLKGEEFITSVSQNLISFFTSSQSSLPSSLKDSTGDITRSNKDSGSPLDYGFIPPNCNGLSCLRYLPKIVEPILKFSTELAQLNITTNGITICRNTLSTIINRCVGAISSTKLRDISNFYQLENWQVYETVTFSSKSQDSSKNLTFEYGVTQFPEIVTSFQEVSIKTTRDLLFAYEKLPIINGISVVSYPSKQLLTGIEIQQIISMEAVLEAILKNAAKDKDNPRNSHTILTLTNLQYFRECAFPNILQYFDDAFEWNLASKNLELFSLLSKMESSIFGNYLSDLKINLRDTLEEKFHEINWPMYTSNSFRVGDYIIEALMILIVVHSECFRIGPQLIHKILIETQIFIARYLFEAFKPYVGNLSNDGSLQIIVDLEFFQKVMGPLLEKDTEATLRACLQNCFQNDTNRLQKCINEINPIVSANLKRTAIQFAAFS

B1: Sec8 (protein, UniProt P32855 1-1065)
chain: MDYLKPAQKGRRRGLSINSLSETQQSAMNSSLDHLQNDLNRINLQWNRILSDNTNPLELALAFLDDTSVGLGHRYEEFNQLKSQIGSHLQDVVNEHSQVFNTNVASYGKAVSSIMQAQEQTLNLKNCLKEANEKITTDKGSLQELNDNNLKYTKMIDVLVNIEELLQIPEKIEENIRKENFHQVQILLERGFILMNNKSLKTVEILKPINQQLELQEHLLFNNLIEEIHDIMYSKSNKTNFTRVTNNDIFKIISISHNGFTSLENYLYNIVNIDIMEHSKTINKNLEQFIHDQSLNKGNIMLQENAATQAPLAPSRNQENEGFNRIGFLLKTINNINKLPVAFNIITERAKEEIHNIIVKSTESIRSKHPSLLKMATSLKNDNHFGLPVQDILSIILRECFWEIFLKLLYAIQCHRAIFEMSNILQPTSSAKPAFKFNKIWGKLLDEIELLLVRYINDPELISSNNGSIKPINGATNNAPTLPKRKNPKIFSLEYNIEDNSSVKDQAFELKALLKDIFPGFSVSSNMDLDSIYVKDESFEQDEPLVPPSVFNMKVILDPFLLFTQSTSTIVPSVLTQNTISSLTFFDDYMNKSFLPKIQMTMDYLFTVEVESNNPYALELSDENHNIFKTALDFQRLFYNLLNVFNTANTFREKISYCILDLLNHFYNYYLGLFNSLIGTSDRHLTRKIITAWLQNGILMDQEQKILNGDETLFHEESIELFKEIPHFYQAGKGLSKSDLFNNLTLDTILQFSASVLWILNWLPGLKKAINIDEVSQEPMLDADRLRSSWTFSESMDLNYSNPSSSPNSLGNLKILLDDKASKKFDETIDGFKTLKFKLITILRFNIRALCIYDIGSFFQNTKIWNMDVGSIELDQNIASLISELRRTESKLKQQLPEKEKNSIFIGLDIVNNYALIKGAKSIKVLNHNGIKKMLRNVNVLQHAYRNLSSEPSKINMNVTMNFYSLCGSSEAELFEYIKDNELPHCSVEDLKTILRLQFSEEMHRQLKRQSTSSTKGSIKPSNKRYTEALEKLSNLEKEQSKEGARTKIGKLKSKLNAVHTANEK
B2: Sec10 (protein, UniProt Q06245 1-871)
chain: MNSLYELDPKWKKLLKTDNFLGGLTVNEFVQELSKDHRNDVLIDANTKNLPTNEKDQDAIREAIWKQLDPKPYIRTFESTLKELKNLNEETLNKRQYFSEQVATQEVIHSENVIKLSKDLHTTLLTFDKLDDRLTNVTQVVSPLGDKLETAIKKKQNYIQSVELIRRYNDFYSMGKSDIVEQLRLSKNWKLNLKSVKLMKNLLILSSKLETSSIPKTINTKLVIEKYSEMMENELLENFNSAYRENNFTKLNEIAIILNNFNGGVNVIQSFINQHDYFIDTKQIDLENEFENVFIKNVKFKEQLIDFENHSVIIETSMQNLINDVETVIKNESKIVKRVFEEKATHVIQLFIQRVFAQKIEPRFEVLLRNSLSISNLAYVRILHGLFTLFGKFTKSLIDYFQLLEIDDSNQILSTTLEQCFADLFSHYLYDRSKYFGIEKRSLEAILVDMTSKFTVNYDKEINKRVLLDKYKEKLSTNVDAFMHSPRGNTHSRQDSTSRSKLSQFNSFLKTHLDKDHLSLNRTNTLSDSFNNSSSSTQYDVANNSSSLVNSSFTASDIDNSPNSPANYSLNDVDSMLKCVVESTARVMELIPNKAHLYILEILKIMFLGIVDSYMEIALEVAYWKICKVDINKTAGVVNLNFLKFISMSTEILDLLSISIKSIFLPLLNNSPEIKAQIIEMTNSQIQKMEILINIILQETITVISTKFSAILCKQKKKDFVPKSQELLDQDTLPAIEIVNILNLIFEQSSKFLKGKNLQTFLTLIGEELYGLLLSHYSHFQVNSIGGVVVTKDIIGYQTAIEDWGVASLIDKFATLRELANLFTVQPELLESLTKEGHLADIGRDIIQSYISNREDFNHDNFINSVKLNFR
B3: Sec15 (protein, UniProt P22224 1-910)
chain: MDQEGQPLLSKDFQQVLLATASGNNSSWTERAVLNNESTDAVKHEPALGQNDVFDLDPLSFDKWVPFLRRALDKNQLDPVIDELENSIEDNFQGLELQLLQDSQMNDKLETSIDEIANIQGMVQDTLSSEISKFQIRLSESANELIVKKQMYVNNKKISLKISEATILITKVVRILELSSKCQELITERKFFKVLQNLDSLEKLYLQEFKNYNFQFLIEIYNSIPFLQKVTKDECINLIRNSLNLNLGKNLIKVGQEFVAIYENELLPQWLETRSKMKLTNFKFNSPIEISMRDESFLAKLNLGEFFQLDDFHDSIMIFQNLNELSVLSGEFNKEYELRKTKLMYPLIWKKNKTAAYQMDSLLRGTGTTPGSTAHDVSTDDPFTQSLSLHFLQDYFLKILGFLLYDINLNKATEFILVDNNYNSTNEFWDGLMDRLSPYLSYFIDEKLKTEEDMIKLKDFLCIYVAILENFKLNIEPLYKILVSIFEKFCSVSLRAFDDEFQILLNDDDFMPLSINDKTLYEKVLKICWMKEGEHLSLPDPTNGEPFAVTLPFSPLYPMTCTLAKKTYSKITAFLSIFYRHELHTLNNILVKTMDDIFNDIVNKKIRSKLESTSREEIAQILVNLDYFIIAAKEFSNFMTRENILQNPDMEIRLSSIKYLAESRKLAETKLIELIDSKISDILETIEIDWQITEVRQDPDISIIDLAQFLEMMFASTLQNLPYSVQTLLIFREFDSLTRQFMGLLLHDTPSTITHESIMNFEVDVNYLESIIPRIFPSTPGTIDSNGYQSPMTPSTPTFPNANGVDAPTLFENNIKSLEATFMELKQCIELLKTQGKDYNEPEIRLRKYSRIRQEDAALLLSKIQHFVSSVEGANGDDTSVMDSSSIFNSESASVIDSNTSRIAKFFNRR

biological target: T1, Sec5-GFP (S. cerevisiae (endogenous in yeast)); assay: co-IP; yeast lysates of wild-type, sec3∆N, gic1∆gic2∆ and triple mutant strains, cells at 25°C or shifted to 37°C for 2 h; Sec5-GFP immuno-isolated with anti-GFP antibody and protein G beads, 50 mM Tris–HCl pH 7.5, 150 mM NaCl, 4 °C; blots for exocyst components

| Molecule | binding |
| --- | --- |
| B1 | binds |
| B2 | binds |
| B3 | binds |

biological target: GST-Sec3N (a.a.71–241) (S. cerevisiae (budding yeast)) (UniProt P33332); assay: pull-down; GST-Sec3N (a.a.71–241) on glutathione Sepharose, His6-Cdc42 or mutant in the presence of GDP; bound protein detected with anti-Hisx6 antibody; both purified

| Molecule | binding |
| --- | --- |
| His6-cdc42-301 (V36A) (from UniProt P19073 1-191) | no binding |
| His6-cdc42-302 (V36A F37A) (from UniProt P19073 1-191) | no binding |
| His6-cdc42-303 (Q61A) (from UniProt P19073 1-191) | no binding |
| His6-cdc42-304 (Y64A) (from UniProt P19073 1-191) | no binding |
| His6-cdc42-305 (Y64A R66A) (from UniProt P19073 1-191) | no binding |
